Earlier results in patent US11801253B2, “Method of safely and effectively treating and preventing secondary hyperparathyroidism in chronic kidney disease” (OPKO RENAL, LLC, priority 2007, dated 2023).
Some of these results come from one statement about several compounds together. At least one structure is not confirmed: it was looked up by name or label, or the drawing left a doubt.

Settings: CKD patients; for serum total 1,25-dihydroxyvitamin D restored to levels: chronically high doses (0.25 to 2.0 mcg orally or 1.0 to 10 mcg intravenously); for lowering of iPTH: chronically high doses, in the majority of patients

Structure (SMILES) | serum total 1,25-dihydroxyvitamin D restored to levels | lowering of iPTH
CC(/C=C/C(C)C(C)(C)O)C1CCC2/C(=C/C=C3CC(O)CC(O)C3)CCCC21C (stereo not drawn) [19-nor-1,25-dihdroxyvitamin D2] | above 20 pg/mL | at least 30%
C=C1/C(=C\C=C2/CCC[C@]3(C)[C@@H]([C@H](C)CCCC(C)(C)O)CC[C@@H]23)C[C@@H](O)C[C@@H]1O [1,25-dihydroxyvitamin D3, 1α,25-dihydroxyvitamin D3] | above 20 pg/mL | at least 30%
C=C1/C(=C\C=C2/CCC[C@]3(C)[C@@H]([C@H](C)/C=C/[C@H](C)C(C)C)CC[C@@H]23)C[C@@H](O)C[C@@H]1O [1-alpha-hydroxyvitamin D2] | above 20 pg/mL | at least 30%
